Results: US11925695B2, “Methods for making ultrasound contrast agents” (Lantheus Medical Imaging, Inc., priority 2016, dated 2024)

Experiment: Calcium and magnesium level in individual lipid, lipid blend and solvent by ICP-MS
Format: physicochemical
Conditions: Determined by ICP-MS, ppm = μg/g

Molecule	Ca^+2 level	Ca^+2 level (mono sodium salt) [ppm]	also measured
CCCCCCCCCCCCCCCC(=O)OC[C@H](COP(=O)(O)O)OC(=O)CCCCCCCCCCCCCCC [DPPA, 1,2-dipalmitoyl-sn-glycero-3-phosphatidic acid]	19 ppm		
CCCCCCCCCCCCCCCC(=O)OC[C@H](COP(=O)([O-])OCC[N+](C)(C)C)OC(=O)CCCCCCCCCCCCCCC [DPPC Lot 1, 1,2-dipalmitoyl-sn-glycero-3-phosphatidylcholine]	Not detected		Mg^+2 level: Not detected
CCCCCCCCCCCCCCCC(=O)OC[C@H](COP(=O)([O-])OCC[N+](C)(C)C)OC(=O)CCCCCCCCCCCCCCC [DPPC Lot 2, 1,2-dipalmitoyl-sn-glycero-3-phosphatidylcholine]	7 ppm		
OCC(O)CO [Glycerol, glycerol]	0.7 ppm		
CC(O)CO (centres unmarked) [Propylene glycol, propylene glycol]	Not detected		
N-(methoxy polyethylene glycol 5000 carbamoyl)-1,2-dipalmitoyl-sn-glycero-3-phosphatidylethanolamine, mono sodium salt [MPEG5000-DPPE (high Ca^+2) Lot 1]		980	Mg^+2 level (mono sodium salt): 150 ppm
N-(methoxy polyethylene glycol 5000 carbamoyl)-1,2-dipalmitoyl-sn-glycero-3-phosphatidylethanolamine, mono sodium salt [MPEG5000-DPPE (high Ca^+2) Lot 2]		520	Mg^+2 level (mono sodium salt): 110 ppm
N-(methoxy polyethylene glycol 5000 carbamoyl)-1,2-dipalmitoyl-sn-glycero-3-phosphatidylethanolamine, mono sodium salt [MPEG5000-DPPE (low Ca^+2)]		4	
